Consider 42 sequences from publication PMC7819943, “Rice protein-binding microarrays: a tool to detect cis-acting elements near promoter regions in rice”.

Sequences of proteins named here, by UniProt entry; tags and fusion partners are left off.
UniProt Q0JBA9, entry or part of it: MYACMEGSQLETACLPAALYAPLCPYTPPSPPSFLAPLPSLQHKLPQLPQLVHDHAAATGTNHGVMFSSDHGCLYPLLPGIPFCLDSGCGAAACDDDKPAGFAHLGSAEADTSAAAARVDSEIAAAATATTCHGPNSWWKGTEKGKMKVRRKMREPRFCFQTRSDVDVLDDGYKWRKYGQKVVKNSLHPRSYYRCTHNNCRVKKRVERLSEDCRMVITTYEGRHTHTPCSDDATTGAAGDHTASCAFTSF

This is one part of the list.

For the assay, the target named is OsWRKY34 (Oryza sativa, UniProt Q0JBA9 1-250). The experiment in a line: protein-binding microarray (RPBM); PBS, 2% BSA, 51.3 ng/ul salmon testes DNA, 50 uM zinc acetate, 200 nM TF, 25 C, 1 h; high values mean tight binding. Conditions: protein: recombinant; tags: N-terminal polyhistidine and DsRed monomer fusion (pET32a); label: CyDye5-dUTP incorporated in the synthesized complementary strand; 3' TTTTT single-stranded linker to array surface; dsDNA, one strand shown. The essentials: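 Ni–NTA purification followed expression in E. coli BL21-CodonPlus of transcription factors fused N-terminally to a polyhistidine tag and DsRed. At 200 nM in PBS with 2% BSA, salmon testes DNA and 50 µM zinc acetate, the protein was incubated for 1 h at 25 °C with a custom Agilent array that had been primer-extended with Cy5-dUTP and blocked with 2% BSA. After washing, the array was read on an Axon 4000B scanner. The binding signal is per-feature fluorescence intensity in arbitrary units.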
Regarding “TGCTCGGGTTCGTGGGGTTGGGAAGCGAGGGATGCGATCTCGGAGTCACCTAGTGCAG”, the binding signal is 8720 fluorescence intensity (a.u.). The same measure for “CAATGTTTCCGTTCCGTTAGATTCGCTGGTCTGGACGCCGCGGAGTCACCTAGTGCAG”: 9580 fluorescence intensity (a.u.). For “ATCTTTTACCCTTTTTTTAACAAAGTTATTTTTTAGGAGCCGGAGTCACCTAGTGCAG” the value was 8520 fluorescence intensity (a.u.); for “ATGACACTGTACTTATCGCTATCACGTACTGTTCGCTTTCCGGAGTCACCTAGTGCAG”, 9940 fluorescence intensity (a.u.); for “TCGAGTTTCGACTACCATCTCAGCTTCGGTCTCGTATTCTCGGAGTCACCTAGTGCAG”, 10700 fluorescence intensity (a.u.). For “CTCTTATATTCCAAGCATCTCGTGTTTTATGCTTTTTAATCGGAGTCACCTAGTGCAG” the value was 9360 fluorescence intensity (a.u.).

As to “AGTGGGTGGGCTCAAAGTCGAAGTCTCGATACAATTAAAACGGAGTCACCTAGTGCAG”, the binding signal is 10000 fluorescence intensity (a.u.). For the sequence “GGGGTATTACCGTATTAGTGGGAAATGTTCGATCTTTCTACGGAGTCACCTAGTGCAG”, the binding signal was 8130 fluorescence intensity (a.u.). The same measure for “TTATGCTTCACCATCGACTCATGCACTTGTCCCCGTATCACGGAGTCACCTAGTGCAG”: 8070 fluorescence intensity (a.u.). Take “CAACACTTTATCCATGTATATCATGCTGTTTCATTACATTCGGAGTCACCTAGTGCAG”: the binding signal was 11200 fluorescence intensity (a.u.). The same measure for “GGTTTCGGTCTCGGTTTTTTCGGTTCGGTTCTTCGGTTCGCGGAGTCACCTAGTGCAG”: 9660 fluorescence intensity (a.u.). For “CACTGCGGCTACCGGTCACCCTAAATATATATTCGTATGCCGGAGTCACCTAGTGCAG”, the binding signal is 10700 fluorescence intensity (a.u.). For “CGAAACCGACGGTCCAGATCTCGCCGCGCCAACCCCATCACGGAGTCACCTAGTGCAG” the value was 8790 fluorescence intensity (a.u.). For “CCAACACGTCCTCCTCAATATATTTTTTTCCGCCACGCGCCGGAGTCACCTAGTGCAG” the value was 8180 fluorescence intensity (a.u.). For “CTATATTTTATGTCGACGACAACATCTAGCTATTTCTTATCGGAGTCACCTAGTGCAG” the value was 9980 fluorescence intensity (a.u.). For “TGGTGGCGGCGGATCGCGTGTGGGACGGGAGGAGGAGGGTCGGAGTCACCTAGTGCAG”, the binding signal was 8920 fluorescence intensity (a.u.). “GCAGCTGAGACTACACATCCCACCGTCCGTTGATCTGTTCCGGAGTCACCTAGTGCAG”: the binding signal is 9250 fluorescence intensity (a.u.).

Turning to “CTCGTTTCTCCTACCTTTGGCCTGCCCATTAATGGCCCCTCGGAGTCACCTAGTGCAG”, the binding signal is 8300 fluorescence intensity (a.u.). For “GTACGTCGCCGCGCTCTTGGAGCTTGGTCAACCCTCGGCACGGAGTCACCTAGTGCAG” the value was 10600 fluorescence intensity (a.u.); for “ACACGGCAGCAGCCCATCTCCCACCACACATATAACCCAGCGGAGTCACCTAGTGCAG”, 8710 fluorescence intensity (a.u.); for “CGCGTCTGCGAGCCCCACACCAAGTGCCTCCGCGTCGTCGCGGAGTCACCTAGTGCAG”, 8060 fluorescence intensity (a.u.). The same measure for “ACAAGTTGACATATTCTCTCTTTCCATCTCAAGCCGATTTCGGAGTCACCTAGTGCAG”: 8670 fluorescence intensity (a.u.); for “CAAATATGCCCGTTACCCTTTTGAACCGGTTTTTATTGCACGGAGTCACCTAGTGCAG”: 9810 fluorescence intensity (a.u.); for “GCCTCGCCGCCGCCGCCGCCGCCTCCGGCTCGCCGGCTCCCGGAGTCACCTAGTGCAG”: 8750 fluorescence intensity (a.u.).

With “AACATACCGGTCACTCTTGCCATAACTGATCACTTTCCTGCGGAGTCACCTAGTGCAG”, the binding signal is 10500 fluorescence intensity (a.u.). Consider “TCCATCTCATAAAAACCATCATTTTGGGCCTATTCACTTTCGGAGTCACCTAGTGCAG”, for which the binding signal was 8420 fluorescence intensity (a.u.).

As to “GGGTTTTTTTTTTTTTTGCTGCTTTGCTTAGCACTTTTTTCGGAGTCACCTAGTGCAG”, the binding signal was 8340 fluorescence intensity (a.u.). For “GGAGTATAGTGTAGTGCTTCCTTTTTTTCTCATTTATTTTCGGAGTCACCTAGTGCAG” the value was 11300 fluorescence intensity (a.u.); for “AGACAGAGGAATAGTATCGTGCCGTAACCGCAGCTGCAACCGGAGTCACCTAGTGCAG”, 11200 fluorescence intensity (a.u.); for “CCGCCATGTGGGCCCCACCTCGCCGCCTCCGCTCCACTCTCGGAGTCACCTAGTGCAG”, 13600 fluorescence intensity (a.u.).

Consider “TGGGTTTCCGTGTCCAACGTTTGACTGTCCGTCTTATATGCGGAGTCACCTAGTGCAG”, for which the binding signal is 12000 fluorescence intensity (a.u.). For “TTTTTGTTTTTTTCTCTGGCTATTGTTGCAATCCAAATGACGGAGTCACCTAGTGCAG” the value was 12600 fluorescence intensity (a.u.).

For “TAACACCAACAGCTTCCTACCACTTCACCTTTTATCATAACGGAGTCACCTAGTGCAG”, the binding signal was 9560 fluorescence intensity (a.u.).

In the case of “TCCTTGTCCTCTTCTGTGTTCTTCCTCTCTTGCTGATCACCGGAGTCACCTAGTGCAG”, the binding signal was 12100 fluorescence intensity (a.u.).

For the sequence “ACAGTGTGTTTTCTTGTAAGTTACAGTGTAATTTTTTAATCGGAGTCACCTAGTGCAG”, the binding signal is 8080 fluorescence intensity (a.u.).

For “CCACACGCATGGGCTGCATTTCGCCTCTTAAATTAATCAACGGAGTCACCTAGTGCAG”, the binding signal was 10000 fluorescence intensity (a.u.). For “TTTTTTCACCCTGATGTCACAGCCACAGCAGCAGTAGTACCGGAGTCACCTAGTGCAG” the value was 11500 fluorescence intensity (a.u.); for “TAGCTTTTGCACTTCTCTCCACAGCCTAAAATCCAATCCACGGAGTCACCTAGTGCAG”, 8860 fluorescence intensity (a.u.).

As for “TGCATGCATTATGACTTTTGACTTGTGACACATAGTCACACGGAGTCACCTAGTGCAG”, the binding signal was 8260 fluorescence intensity (a.u.). For “CGCCAATTGTCAATTCCGACACAACTTTGCTACTTTAACACGGAGTCACCTAGTGCAG” the value was 8770 fluorescence intensity (a.u.). The same measure for “AATTCGCATGATTGTTTTCGTTTTGTTGGTCAGTGAATGACGGAGTCACCTAGTGCAG”: 8320 fluorescence intensity (a.u.); for “CCGTTTCACAATGTAAGTCATTTCTAGCATTTCCCACATTCGGAGTCACCTAGTGCAG”: 10800 fluorescence intensity (a.u.).
